Measurements reported in patent US20130023553A1, “PEGYLATED OPIOIDS WITH LOW POTENTIAL FOR ABUSE AND SIDE EFFECTS” (Nektar Therapeutics, priority 2010, published 2013).

Experiments:
[1] = In situ rat brain perfusion (rate of brain penetration, Kin); conditions: following perfusion
in vivo = conditions: rat, iv, 25 mg/kg

CC(C)NCC(O)COc1ccc(CC(N)=O)cc1 (centres unmarked) [Atenolol, atenolol]
vascular space marked by atenolol [1]: ≤ 20 μL/g of brain tissue | Kp at 1 h (in vivo): 0.11
